Results as given in patent publication US9989531B2, “Composition comprising a cell sample from a subject with scoliosis and a reagent for detecting PTPμ or PIPK1y” (Chu Sainte-Justine, priority 2013, dated 2018).
For at least one compound, name, drawing or mass did not settle the structure.

System: somatostatin receptor (SSTR)
Test: GiPCR signaling by cellular dielectric spectroscopy (CDS), somatostatin stimulation of osteoblasts
Assay type: cell-based, mouse
Conditions: osteoblasts from bipedal WT and PTPμ−/− mice, different concentrations (FIG. 3)

## C[C@H](N)C(=O)NCC(=O)N[C@H]1CSSC[C@@H](C(=O)O)NC(=O)[C@H](CO)NC(=O)[C@H]([C@@H](C)O)NC(=O)[C@H](Cc2ccccc2)NC(=O)[C@H]([C@@H](C)O)NC(=O)[C@H](CCCCN)NC(=O)[C@H](Cc2c[nH]c3ccccc23)NC(=O)[C@H](Cc2ccccc2)NC(=O)[C@H](Cc2ccccc2)NC(=O)[C@H](CC(N)=O)NC(=O)[C@H](CCCCN)NC1=O [somatostatin, Somatostatin]
  CDS response to agonist: increased response in a concentration-dependent manner
